Results are given in words; binding and its absence hold for the method and conditions named. For some of these results: In cells and extracts the contact can be indirect. Some binding calls cover weakened binding; strength is not graded here. One block for each molecule: values may come before it.
Columns and labels:
[1] = biological target: estrogen receptor alpha (ERα), endogenous (human (endogenous in MCF-7, T47D, ZR-75-1)) (UniProt P03372); test: co-IP; nuclear protein extracts of control MCF-7 and MCF7-ISG12 (stably overexpressing ISG12) cells grown in hormone-free or E2 medium; IP with anti-CRM1 or anti-ERα, Western blot with anti-ERα or anti-CRM1, densitometry
[2] = biological target: nuclear exportin protein chromosomal maintenance 1 (CRM1/XPO1), endogenous (human (endogenous in MCF-7)) (UniProt O14980); test: as above
[3] = biological target: estrogen receptor alpha (ERα), endogenous (human (endogenous in MCF-7, T47D, ZR-75-1)) (UniProt P03372); test: proximity ligation; Duolink PLA on fixed MCF-7, T47-D and ZR-75-1 cells stimulated with E2 for 1 h; mouse anti-ERα (D12) and rabbit anti-ISG12 antibodies; endogenous proteins
[4] = biological target: AF-1 domain (amino acids 1–180) of estrogen receptor α (UniProt P03372); test: two-hybrid; Matchmaker two-hybrid screen in Y190 yeast; bait ERα AF-1 (1-180) in pAS2.1, human mammary gland cDNA library in pACT2; SD/-Leu -Trp -His with 25 mM 3-AT, 30°C, then β-galactosidase activity

Chains of the proteins cited; added tags and fusions are not shown. Lines headed by an entry give the natural chain unless they say otherwise; changes in a name come on top. Residues count along the entry.
UniProt P03372: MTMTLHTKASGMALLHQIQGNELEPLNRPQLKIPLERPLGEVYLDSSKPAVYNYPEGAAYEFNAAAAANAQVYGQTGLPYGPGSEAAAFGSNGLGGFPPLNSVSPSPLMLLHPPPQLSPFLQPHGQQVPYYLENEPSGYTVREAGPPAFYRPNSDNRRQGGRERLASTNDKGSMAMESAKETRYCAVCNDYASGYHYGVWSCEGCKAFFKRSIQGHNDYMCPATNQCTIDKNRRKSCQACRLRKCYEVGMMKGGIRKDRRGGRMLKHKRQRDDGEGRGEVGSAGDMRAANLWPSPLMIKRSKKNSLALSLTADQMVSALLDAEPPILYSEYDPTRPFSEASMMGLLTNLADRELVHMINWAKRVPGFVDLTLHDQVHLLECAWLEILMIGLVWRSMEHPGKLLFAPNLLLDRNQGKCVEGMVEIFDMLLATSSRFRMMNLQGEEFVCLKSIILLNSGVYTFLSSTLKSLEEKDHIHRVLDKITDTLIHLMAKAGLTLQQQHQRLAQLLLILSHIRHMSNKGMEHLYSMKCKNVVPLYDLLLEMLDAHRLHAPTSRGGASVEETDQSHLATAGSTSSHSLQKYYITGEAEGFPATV
AF-1 domain (amino acids 1–180) of estrogen receptor α: residues 1-180 of P03372
UniProt O14980: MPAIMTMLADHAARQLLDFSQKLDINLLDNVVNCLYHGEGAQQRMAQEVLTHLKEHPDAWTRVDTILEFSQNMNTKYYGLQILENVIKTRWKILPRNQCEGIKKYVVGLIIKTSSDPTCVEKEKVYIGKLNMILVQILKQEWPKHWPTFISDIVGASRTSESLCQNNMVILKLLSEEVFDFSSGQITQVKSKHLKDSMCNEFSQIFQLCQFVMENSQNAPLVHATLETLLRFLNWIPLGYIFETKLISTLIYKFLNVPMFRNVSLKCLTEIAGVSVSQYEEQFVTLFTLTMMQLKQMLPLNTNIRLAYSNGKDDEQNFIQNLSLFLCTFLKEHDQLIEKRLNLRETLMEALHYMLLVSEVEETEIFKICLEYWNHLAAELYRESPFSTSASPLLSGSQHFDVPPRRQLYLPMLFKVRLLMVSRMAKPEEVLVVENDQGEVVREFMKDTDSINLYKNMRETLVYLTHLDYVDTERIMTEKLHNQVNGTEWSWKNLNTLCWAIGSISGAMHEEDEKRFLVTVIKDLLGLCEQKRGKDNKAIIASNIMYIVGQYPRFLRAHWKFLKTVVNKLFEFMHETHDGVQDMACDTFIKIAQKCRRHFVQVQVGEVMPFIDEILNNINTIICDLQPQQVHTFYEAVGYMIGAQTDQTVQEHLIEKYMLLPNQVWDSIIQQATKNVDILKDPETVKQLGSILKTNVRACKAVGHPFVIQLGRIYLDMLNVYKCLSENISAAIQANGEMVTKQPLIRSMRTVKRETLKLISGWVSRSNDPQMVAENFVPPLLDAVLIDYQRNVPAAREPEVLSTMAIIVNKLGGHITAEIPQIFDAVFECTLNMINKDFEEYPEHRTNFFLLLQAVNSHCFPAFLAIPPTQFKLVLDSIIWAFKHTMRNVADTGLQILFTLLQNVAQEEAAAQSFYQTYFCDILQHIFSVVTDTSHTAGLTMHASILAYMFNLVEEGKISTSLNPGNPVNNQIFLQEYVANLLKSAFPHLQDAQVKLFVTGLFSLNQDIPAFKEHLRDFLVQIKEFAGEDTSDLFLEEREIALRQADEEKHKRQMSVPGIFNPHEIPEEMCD

Molecule: estrogen receptor alpha (ERα), endogenous (from UniProt P03372 1-595)
binding [2]: binds

B1: interferon alpha inducible protein 27 (IFI27/ISG12), endogenous (protein, UniProt P40305-2 34-122)
chain: ATVVIGGVVAMAAVPMVLSAMGFTAAGIASSSIAAKMMSAAAIANGGGVASGSLVATLQSLGATGLSGLTKFILGSIGSAIAAVIARFY
binding [3]: binds

Second part, the molecule after the results:

binding [1]: binds
Molecule: nuclear exportin protein chromosomal maintenance 1 (CRM1/XPO1), endogenous (from UniProt O14980 1-1071)

binding [4]: binds
B2: interferon alpha inducible protein 27 (IFI27/ISG12), clone from a human mammary gland cDNA library (protein, UniProt P40305-2 1-122)
chain: MEASALTSSAVTSVAKVVRVASGSAVVLPLARIATVVIGGVVAMAAVPMVLSAMGFTAAGIASSSIAAKMMSAAAIANGGGVASGSLVATLQSLGATGLSGLTKFILGSIGSAIAAVIARFY

Source: article PMC7575815
